From article doi:10.1101/2024.09.11.24313360

Molecular target: T1, UNC93B1 (WT)-BirA* (human) (UniProt Q9H1C4)
T1 sequence: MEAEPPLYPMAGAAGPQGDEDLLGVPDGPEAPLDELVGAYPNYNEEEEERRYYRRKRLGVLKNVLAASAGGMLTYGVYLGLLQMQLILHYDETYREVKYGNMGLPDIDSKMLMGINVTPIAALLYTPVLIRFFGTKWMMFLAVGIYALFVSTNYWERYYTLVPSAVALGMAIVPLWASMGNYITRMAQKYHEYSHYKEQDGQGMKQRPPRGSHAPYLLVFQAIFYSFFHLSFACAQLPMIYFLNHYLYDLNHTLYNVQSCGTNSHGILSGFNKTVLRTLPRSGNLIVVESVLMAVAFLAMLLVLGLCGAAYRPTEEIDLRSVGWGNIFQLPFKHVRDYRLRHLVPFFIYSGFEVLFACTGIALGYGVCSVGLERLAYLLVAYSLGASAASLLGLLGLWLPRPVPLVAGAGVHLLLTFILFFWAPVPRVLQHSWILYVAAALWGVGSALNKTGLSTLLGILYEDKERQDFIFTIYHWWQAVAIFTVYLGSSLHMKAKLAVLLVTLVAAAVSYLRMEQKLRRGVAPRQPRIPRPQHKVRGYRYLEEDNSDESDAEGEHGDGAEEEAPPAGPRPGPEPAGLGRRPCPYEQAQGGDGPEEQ
Assay: proximity labelling

binding: binds
B1: endogenous TLR7 (cleaved forms) (receptor, UniProt P58681 27-1050)
chain: FRWFPKTLPCEVKVNIPEAHVIVDCTDKHLTEIPEGIPTNTTNLTLTINHIPSISPDSFRRLNHLEEIDLRCNCVPVLLGSKANVCTKRLQIRPGSFSGLSDLKALYLDGNQLLEIPQDLPSSLHLLSLEANNIFSITKENLTELVNIETLYLGQNCYYRNPCNVSYSIEKDAFLVMRNLKVLSLKDNNVTAVPTTLPPNLLELYLYNNIIKKIQENDFNNLNELQVLDLSGNCPRCYNVPYPCTPCENNSPLQIHDNAFNSLTELKVLRLHSNSLQHVPPTWFKNMRNLQELDLSQNYLAREIEEAKFLHFLPNLVELDFSFNYELQVYHASITLPHSLSSLENLKILRVKGYVFKELKNSSLSVLHKLPRLEVLDLGTNFIKIADLNIFKHFENLKLIDLSVNKISPSEESREVGFCPNAQTSVDRHGPQVLEALHYFRYDEYARSCRFKNKEPPSFLPLNADCHIYGQTLDLSRNNIFFIKPSDFQHLSFLKCLNLSGNTIGQTLNGSELWPLRELRYLDFSNNRLDLLYSTAFEELQSLEVLDLSSNSHYFQAEGITHMLNFTKKLRLLDKLMMNDNDISTSASRTMESDSLRILEFRGNHLDVLWRAGDNRYLDFFKNLFNLEVLDISRNSLNSLPPEVFEGMPPNLKNLSLAKNGLKSFFWDRLQLLKHLEILDLSHNQLTKVPERLANCSKSLTTLILKHNQIRQLTKYFLEDALQLRYLDISSNKIQVIQKTSFPENVLNNLEMLVLHHNRFLCNCDAVWFVWWVNHTDVTIPYLATDVTCVGPGAHKGQSVISLDLYTCELDLTNLILFSVSISSVLFLMVVMTTSHLFFWDMWYIYYFWKAKIKGYQHLQSMESCYDAFIVYDTKNSAVTEWVLQELVAKLEDPREKHFNLCLEERDWLPGQPVLENLSQSIQLSKKTVFVMTQKYAKTESFKMAFYLSHQRLLDEKVDVIILIFLEKPLQKSKFLQLRKRLCRSSVLEWPANPQAHPYFWQCLKNALTTDNHVAYSQMFKETV

These are yes or no findings as the source states them, for the method shown. In cells and extracts the contact can be indirect. A yes stands for co-enrichment or nearness to the bait. Other partners may have been found.
